# Measured values as given in the supplement of paper PMC9549374.
# The list shows a part of the results. Rule as the data show it: active = 2-fold of DMSO or more and inactive = the rest. Single values of this set are uncertain. Some low values are a fixed figure set by the source, not a measured ratio.
# System: CM7/1-hgem mouse ES cell-derived cardiomyocytes
# Experiment: maximal number of mAG-hGem(1/110)-positive cardiomyocytes over 96 h, fold-change vs DMSO; higher = more cardiomyocyte cell cycle activity
# Settings: 1 µM; 96 (max over 12 h time points) h
row,SMILES,maximal number
1,C[C@H]1C(=O)O[C@@H]2CCN3CC=C(COC(=O)[C@](C)(O)[C@]1(C)O)[C@H]23,inactive: 0
2,"CC1(C)C(=O)[C@@H]2O[C@@H]2[C@@]2(C)C1C[C@@H](O)[C@]1(C)C2CC[C@@]2(C)[C@H](c3ccoc3)OC(=O)C3OC321 (stereo partly drawn) [1,2alpha-EPOXYDEACETOXYDIHYDROGEDUNIN]",inactive: 1
3,C=C(C)[C@@H]1[C@H]2OC(=O)[C@@H]1[C@]1(O)C[C@H]3O[C@]34C(=O)O[C@H]2[C@]14C,inactive: 1
4,NCCc1ccc(O)cc1,inactive: 1
5,C=C(C)[C@H]1CN[C@H](C(=O)O)[C@H]1CC(=O)O,inactive: 1
6,CC1=C2C(=CO[C@H](C)[C@H]2C)C(O)=C(C(=O)O)C1=O,inactive: 1
7,COc1cc2ccc(=O)oc2c2ccoc12,inactive: 0
8,COc1cc(OC)c2c(c1)O[C@H](c1ccc(OC)c(OC)c1)[C@@H](O)C2,inactive: 1
9,CC1=CCCC2C1(C)CCC(C)C2(C)CC/C(C)=C/Cn1c[n+](C)c2c(N)ncnc21 (stereo not drawn) [AGELASINE (stereochemistry of diterpene unknown)],inactive: 1
10,COc1cc2c(cc1OC)[C@H](C)NCC2,inactive: 1
11,C[C@@H]1C[C@@H]([C@H](O)CC2CC(=O)NC(=O)C2)C(=O)[C@@H](C)C1,inactive: 1
12,C=C(C)[C@H]1Cc2c(ccc3c(=O)c4c(oc23)COc2cc(OC)c(OC)cc2-4)O1,inactive: 1
13,CC(N)Cc1ccc(O)cc1 (stereo not drawn),inactive: 0
14,O=[N+]([O-])O[C@@H]1CO[C@H]2[C@@H]1OC[C@@H]2O,inactive: 1
15,CC[C@@]1(O)C[C@H](O)c2c(cc3c(c2O)C(=O)c2c(O)ccc(O)c2C3=O)[C@H]1C(=O)OC,inactive: 1
16,CC1(C)C2C[C@@H](O)[C@]3(C)C(CC[C@@]4(C)[C@H](c5ccoc5)OC(=O)[C@H]5O[C@]543)[C@@]2(C)[C@@H](O)C[C@H]1O (stereo partly drawn),inactive: 1
17,CC(=O)O[C@H]1CC[C@@]2(C)[C@H](CC[C@@H]3[C@@H]2CC[C@]2(C)[C@@H](C4=CC(=O)OC4)[C@@H](OC(C)=O)C[C@]32O)C1,inactive: 1
18,CNc1ccc(C(=O)CC(O)CCC(C)C2OC(=O)CC(O)CC(=O)CC(O)CC(O)CC(O)CC(O)CC3(O)CC(O)C(C(=O)OC)C(CC(O[C@@H]4O[C@H](C)[C@@H](O)[C@H](N)[C@@H]4O)/C=C/C=C/C=C/C=C/C=C/C=C/C=C/C2C)O3)cc1.COC(=O)C1C(O)CC2(O)CC(O)CC(O)CC(O)CC(O)CC(=O)CC(O)CC(=O)OC(C(C)CCC(O)CC(=O)c3ccc(N)cc3)C(C)/C=C/C=C/C=C/C=C/C=C/C=C/C=C/C(O[C@@H]3O[C@H](C)[C@@H](O)[C@H](N)[C@@H]3O)CC1O2 (stereo partly drawn),inactive: 1

# Look-ups from the results shown:
# Entry of COc1cc2ccc(=O)oc2c2ccoc12 under maximal number: inactive: 0
# Entry of C=C(C)[C@@H]1[C@H]2OC(=O)[C@@H]1[C@]1(O)C[C@H]3O[C@]34C(=O)O[C@H]2[C@]14C under maximal number: inactive: 1
